Literature values as cited in patent US20240052133A1, “CHEMICAL RECYLING OF PLASTICS USING IONIC LIQUIDS OR DEEP EUTECTIC SOLVENTS” (THE REGENTS OF THE UNIVERSITY OF CALIFORNIA, priority 2022, published 2024).
At least one read-out could not be matched to a standard name with certainty.

Details: from cited reference; cited from earlier work

CC(=O)[O-].CCn1cc[n+](C)c1 [[Emim][Ac], 1-ethyl-3-methylimidazolium acetate]
Hansen Solubility Parameter δd (dispersion): 19.43 MPa^1/2
Hansen Solubility Parameter δt (total HSP): 33.38 MPa^1/2
